In patent US20140187612A1:
No constants are given. Whether binding was seen depends on the method and setting. Binding calls can cover weak binding; strength is not graded here.

Chains of the proteins cited; added tags and fusions are not shown. Lines headed by an entry give the natural chain unless they say otherwise; changes in a name come on top.
UniProt P45983: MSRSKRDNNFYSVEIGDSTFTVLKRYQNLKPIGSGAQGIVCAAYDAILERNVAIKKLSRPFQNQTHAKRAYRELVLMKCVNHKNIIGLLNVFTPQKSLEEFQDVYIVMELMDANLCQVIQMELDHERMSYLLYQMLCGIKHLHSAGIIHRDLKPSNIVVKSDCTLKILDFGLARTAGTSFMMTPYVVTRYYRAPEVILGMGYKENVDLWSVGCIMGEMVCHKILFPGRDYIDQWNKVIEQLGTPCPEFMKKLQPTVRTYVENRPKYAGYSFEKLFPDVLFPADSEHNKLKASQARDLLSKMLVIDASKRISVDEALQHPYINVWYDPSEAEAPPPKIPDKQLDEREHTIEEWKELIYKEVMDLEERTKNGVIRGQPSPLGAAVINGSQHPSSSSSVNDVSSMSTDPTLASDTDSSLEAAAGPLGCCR

Experiments:
[1] = molecular target: T1, 10 mer peptide 10(4), …; assay: peptide ELISA with ERK2 cleaved from GST-ERK2 by thrombin
T1 sequence (peptide): RSKAKNPLYR

[2] = molecular target: T2, 15 mer test peptide seq. 4, …; assay: as above
T2 sequence (peptide, biotinylated): RSKAKWQTGTNPLYR

[3] = molecular target: T3, β6 cytoplasmic tail peptide (52 amino acid long β6 cytoplasmic tail); assay: plate assay with increasing concentrations of the β6 cytoplasmic tail peptide, detection with anti-JNK-1 mAb SC 474-G
T3 sequence (peptide): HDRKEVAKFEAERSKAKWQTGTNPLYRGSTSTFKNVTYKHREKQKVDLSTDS

| binding [1] | binding [2] | binding [3] | Substance |
| --- | --- | --- | --- |
| binds | binds |  | ERK2 cleaved from GST-ERK2 by thrombin (enzyme) |
|  |  | binds | MAP kinase JNK-1 (Santa Cruz) (from UniProt P45983) (enzyme) |
